# Laboratory results published in paper PMC8384837.
# Substitutions are numbered along the chain they refer to. This is one part of the list. At the low end of the ranking the order means little.
# Legend:
# Conditions in all cases: yeast three-hybrid, YBZ-1, SC-Leu-His + 0.5 mM 3-AT, 4 days
# [1] = target: T1, PUM1 PUF domain R3-APL C935A + R936P + Q939L (UniProt Q14671)
# T1 sequence: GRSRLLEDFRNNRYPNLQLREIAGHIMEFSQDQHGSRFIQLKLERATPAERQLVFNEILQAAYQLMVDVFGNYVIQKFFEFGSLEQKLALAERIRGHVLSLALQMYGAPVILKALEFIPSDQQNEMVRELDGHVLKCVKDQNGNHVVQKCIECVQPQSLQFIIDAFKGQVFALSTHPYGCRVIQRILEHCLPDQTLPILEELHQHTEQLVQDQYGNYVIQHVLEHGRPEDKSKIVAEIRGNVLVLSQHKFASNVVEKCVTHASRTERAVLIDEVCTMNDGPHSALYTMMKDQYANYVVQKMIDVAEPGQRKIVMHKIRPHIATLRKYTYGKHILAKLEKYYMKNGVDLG
# [2] = target: T2, PUM1 PUF domain R3-ARH C935A + Q939H (UniProt Q14671)
# T2 sequence: T1 sequence with P109R, L112H
# [3] = target: T3, PUM1 PUF domain R3-DYG C935D + R936Y + Q939G (UniProt Q14671)
# T3 sequence: T1 sequence with A108D, P109Y, L112G
# [4] = target: T4, PUM1 PUF domain R3-DYS C935D + R936Y + Q939S (UniProt Q14671)
# T4 sequence: T1 sequence with A108D, P109Y, L112S
# [5] = target: T5, PUM1 PUF domain R3-GPT C935G + R936P + Q939T (UniProt Q14671)
# T5 sequence: T1 sequence with A108G, L112T
# [6] = target: T6, PUM1 PUF domain R3-GPW C935G + R936P + Q939W (UniProt Q14671)
# T6 sequence: T1 sequence with A108G, L112W
# [7] = target: T7, PUM1 PUF domain R3-GRF C935G + Q939F (UniProt Q14671)
# T7 sequence: T1 sequence with A108G, P109R, L112F
# [8] = target: T8, PUM1 PUF domain R3-PWW C935P + R936W + Q939W (UniProt Q14671)
# T8 sequence: T1 sequence with A108P, P109W, L112W
# [9] = target: T9, PUM1 PUF domain R3-RAP C935R + R936A + Q939P (UniProt Q14671)
# T9 sequence: T1 sequence with A108R, P109A, L112P
# [10] = target: T10, PUM1 PUF domain R3-RRK C935R + Q939K (UniProt Q14671)
# T10 sequence: T1 sequence with A108R, P109R, L112K
# [11] = target: T11, PUM1 PUF domain R3-SQQ C935S + R936Q (UniProt Q14671)
# T11 sequence: T1 sequence with A108S, P109Q, L112Q
# [12] = target: T12, PUM1 PUF domain R3-TRL C935T + Q939L (UniProt Q14671)
# T12 sequence: T1 sequence with A108T, P109R
# [13] = target: T13, PUM1 PUF domain R3-TRW C935T + Q939W (UniProt Q14671)
# T13 sequence: T1 sequence with A108T, P109R, L112W
# [14] = target: T14, PUM1 PUF domain R3-VCI C935V + R936C + Q939I (UniProt Q14671)
# T14 sequence: T1 sequence with A108V, P109C, L112I
# [15] = target: T15, PUM1 PUF domain R3-VFF C935V + R936F + Q939F (UniProt Q14671)
# T15 sequence: T1 sequence with A108V, P109F, L112F
# [16] = target: T16, PUM1 PUF domain R3-VFW C935V + R936F + Q939W (UniProt Q14671)
# T16 sequence: T1 sequence with A108V, P109F, L112W
# [17] = target: T17, PUM1 PUF domain R3-VFY C935V + R936F + Q939Y (UniProt Q14671)
# T17 sequence: T1 sequence with A108V, P109F, L112Y
# [18] = target: T18, PUM1 PUF domain R3-VNV C935V + R936N + Q939V (UniProt Q14671)
# T18 sequence: T1 sequence with A108V, P109N, L112V
# [19] = target: T19, PUM1 PUF domain R3-VRL C935V + Q939L (UniProt Q14671)
# T19 sequence: T1 sequence with A108V, P109R
# [20] = target: T20, PUM1 PUF domain R3-VYF C935V + R936Y + Q939F (UniProt Q14671)
# T20 sequence: T1 sequence with A108V, P109Y, L112F
sequence,measurement,setting,value
GGCUAGAACUAGUGGAUCCCCCGGCGCCCGGCGGCUCGAGCCCGGGUAAGUGUAAGUAGUCUGCAUGCCGCCGGGCGCCAUGCCUGCAGGUCGACUCUAGAAAACAUG,binding signal (log2 enrichment (interaction score)),[1],< -8.76
same,binding signal (log2 enrichment (interaction score)),[2],-5.17
same,binding signal (log2 enrichment (interaction score)),[3],-4.99
same,binding signal (log2 enrichment (interaction score)),[4],-5.83
same,binding signal (log2 enrichment (interaction score)),[5],-3.35
same,binding signal (log2 enrichment (interaction score)),[6],< -9.37
same,binding signal (log2 enrichment (interaction score)),[7],-3.62
same,binding signal (log2 enrichment (interaction score)),[8],< -6.86
same,binding signal (log2 enrichment (interaction score)),[9],< -6.87
same,binding signal (log2 enrichment (interaction score)),[10],< -6.88
same,binding signal (log2 enrichment (interaction score)),[11],< -7.22
same,binding signal (log2 enrichment (interaction score)),[12],-3.95
same,binding signal (log2 enrichment (interaction score)),[13],-4.69
same,binding signal (log2 enrichment (interaction score)),[14],< -8.87
same,binding signal (log2 enrichment (interaction score)),[15],< -8.66
same,binding signal (log2 enrichment (interaction score)),[16],-5.9
same,binding signal (log2 enrichment (interaction score)),[17],< -7.58
same,binding signal (log2 enrichment (interaction score)),[18],-6.44
same,binding signal (log2 enrichment (interaction score)),[19],-3.88
same,binding signal (log2 enrichment (interaction score)),[20],-5.88

# In a second layout: entries from further up
sequence	measurement	setting	value
GGCUAGAACUAGUGGAUCCCCCGGCGCCCGGCGGCUCGAGCCCGGGUAAGUGUAAGUAGUCUGCAUGCCGCCGGGCGCCAUGCCUGCAGGUCGACUCUAGAAAACAUG	binding signal (log2 enrichment (interaction score))	[10]	< -6.88
same	binding signal (log2 enrichment (interaction score))	[11]	< -7.22
